Experimental findings from article PMC10244377 are described below.

Protein sequences, listed by entry. Tags and fused reporters are not part of them.
UniProt Q9UKV8: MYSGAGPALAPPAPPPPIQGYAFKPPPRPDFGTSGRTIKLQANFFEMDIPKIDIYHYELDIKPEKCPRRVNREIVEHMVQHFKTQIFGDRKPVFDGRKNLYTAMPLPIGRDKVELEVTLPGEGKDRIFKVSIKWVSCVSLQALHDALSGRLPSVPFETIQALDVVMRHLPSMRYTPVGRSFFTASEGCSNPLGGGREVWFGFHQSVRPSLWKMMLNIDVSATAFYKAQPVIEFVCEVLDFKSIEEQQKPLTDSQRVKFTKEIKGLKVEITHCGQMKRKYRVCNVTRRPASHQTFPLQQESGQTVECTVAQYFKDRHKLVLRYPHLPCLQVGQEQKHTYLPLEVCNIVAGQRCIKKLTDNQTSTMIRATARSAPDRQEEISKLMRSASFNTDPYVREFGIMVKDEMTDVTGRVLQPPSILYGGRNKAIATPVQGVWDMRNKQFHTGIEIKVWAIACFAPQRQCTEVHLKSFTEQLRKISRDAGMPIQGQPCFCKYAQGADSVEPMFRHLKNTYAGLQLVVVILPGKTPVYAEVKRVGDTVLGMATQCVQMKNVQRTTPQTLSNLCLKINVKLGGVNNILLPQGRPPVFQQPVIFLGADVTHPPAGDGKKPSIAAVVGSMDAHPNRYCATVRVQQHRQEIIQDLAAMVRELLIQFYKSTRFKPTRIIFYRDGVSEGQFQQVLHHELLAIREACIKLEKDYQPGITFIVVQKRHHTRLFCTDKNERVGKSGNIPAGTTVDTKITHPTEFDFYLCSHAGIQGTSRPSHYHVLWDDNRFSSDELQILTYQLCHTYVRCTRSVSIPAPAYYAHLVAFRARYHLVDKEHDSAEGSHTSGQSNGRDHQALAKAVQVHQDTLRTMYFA

These are yes or no findings as the source states them, for the method shown. In cells and extracts the contact can be indirect. Some binding calls cover weakened binding; strength is not graded here.

For assay [1], the target named is T1, Lissencephaly-1 (LIS1), human, endogenous in hESCs (human (endogenous in hESCs)) (UniProt P43034).
T1 sequence: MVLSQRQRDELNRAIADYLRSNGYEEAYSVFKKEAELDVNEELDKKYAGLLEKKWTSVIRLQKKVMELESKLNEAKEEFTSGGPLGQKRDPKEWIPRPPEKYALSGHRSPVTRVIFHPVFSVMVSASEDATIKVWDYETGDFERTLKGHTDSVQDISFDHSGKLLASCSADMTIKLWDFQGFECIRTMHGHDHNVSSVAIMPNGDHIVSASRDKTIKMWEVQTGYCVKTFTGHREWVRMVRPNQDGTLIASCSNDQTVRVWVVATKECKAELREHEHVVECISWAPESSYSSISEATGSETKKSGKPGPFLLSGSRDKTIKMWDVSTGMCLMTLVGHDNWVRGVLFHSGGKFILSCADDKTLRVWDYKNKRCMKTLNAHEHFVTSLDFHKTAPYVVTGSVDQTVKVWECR
Kind of assay: co-IP; endogenous proteins, nuclear and cytoplasmic fractions of hESCs; IP with the indicated antibodies, IgG as control; western blot. For orientation: In western blotting, separated proteins are transferred to a membrane and probed.

Assay [2] addresses T2, LIS1 in the Benzonase-treated whole cell extract (Fig. 2f) (UniProt P43034).
T2 sequence: T1 sequence
Kind of assay: co-IP; total whole cell extract treated with Benzonase to remove RNA; IP with the indicated antibodies, IgG as control; western blot.

Take “AGO2, human, endogenous in hESCs (from UniProt Q9UKV8 1-859)”: the binding result in assay [1] is “binds”.
As to “AGO2 in the Benzonase-treated whole cell extract (Fig. 2f) (from UniProt Q9UKV8 1-859)”, the binding entry in assay [2] was “binds”.
